{"source": "PubChem BioAssay AID1259425 (University of Nebraska Medical Center, 2018)", "test": "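Find knockdowns that reproduce the gene expression pattern seen when KSR1 is lost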 (primary screen)", "cells": "HCT116 human colon cancer cells", "knock-down reagent": "siRNA pool against human genes, 50 nM siRNA", "measured": "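mRNA of six signature genes measured together by branched-DNA assay after 50 nM siRNA pool, blank removed, divided by geometric mean of two housekeeping genes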", "reading the numbers": "BNIP3L mRNA: higher = more BNIP3L transcript after knockdown", "note": "Here is a random part of about 14,000 reagents tested. Further read-outs or replicates are left out here. Not stated in the record: the time to read-out."}
{"gene symbol":"PTPRJ (GeneID 5795)","BNIP3L mRNA, set 1":0.215}
{"gene symbol":"ADAMTS12 (GeneID 81792)","BNIP3L mRNA, set 1":0.0684}
{"gene symbol":"IGF2BP2 (GeneID 10644)","BNIP3L mRNA, set 1":0.154}
{"gene symbol":"ERAP1 (GeneID 51752)","BNIP3L mRNA, set 1":0.0521}
{"gene symbol":"AKR1E2 (GeneID 83592)","BNIP3L mRNA, set 1":0.0731}
{"gene symbol":"SSB (GeneID 6741)","BNIP3L mRNA, set 1":0.161}
{"gene symbol":"DNAH3 (GeneID 55567)","BNIP3L mRNA, set 1":0.0737}
{"gene symbol":"NEDD4L (GeneID 23327)","BNIP3L mRNA, set 1":0.0631}
{"gene symbol":"ABCC3 (GeneID 8714)","BNIP3L mRNA, set 1":0.301}
{"gene symbol":"HBB (GeneID 3043)","BNIP3L mRNA, set 1":0.178}
{"gene symbol":"BBS10 (GeneID 79738)","BNIP3L mRNA, set 1":0.211}
{"gene symbol":"GAGE5 (GeneID 2577)","BNIP3L mRNA, set 1":0.128}
{"gene symbol":"SLC19A2 (GeneID 10560)","BNIP3L mRNA, set 1":0.0938}
{"gene symbol":"SKP2 (GeneID 6502)","BNIP3L mRNA, set 1":0.0489}
{"gene symbol":"TMEM176A (GeneID 55365)","BNIP3L mRNA, set 1":0.0689}
{"gene symbol":"KLF12 (GeneID 11278)","BNIP3L mRNA, set 1":0.122}
{"gene symbol":"LINC00115 (GeneID 79854)","BNIP3L mRNA, set 1":0.136}
{"gene symbol":"OLIG3 (GeneID 167826)","BNIP3L mRNA, set 1":0.12}
{"gene symbol":"FCGR2C (GeneID 9103)","BNIP3L mRNA, set 1":0.0747}
{"gene symbol":"KNG1 (GeneID 3827)","BNIP3L mRNA, set 1":0.0963}
{"gene symbol":"SNX4 (GeneID 8723)","BNIP3L mRNA, set 1":0.107}
{"gene symbol":"PHTF1 (GeneID 10745)","BNIP3L mRNA, set 1":0.0525}
{"gene symbol":"SYNRG (GeneID 11276)","BNIP3L mRNA, set 1":0.0406}
{"gene symbol":"HOOK3 (GeneID 84376)","BNIP3L mRNA, set 1":0.139}
{"gene symbol":"KCNA1 (GeneID 3736)","BNIP3L mRNA, set 1":0.0759}
{"gene symbol":"ATP5F1A (GeneID 498)","BNIP3L mRNA, set 1":0.0867}
{"gene symbol":"LEP (GeneID 3952)","BNIP3L mRNA, set 1":0.0568}
{"gene symbol":"SLC30A9 (GeneID 10463)","BNIP3L mRNA, set 1":0.148}
{"gene symbol":"DGCR6 (GeneID 8214)","BNIP3L mRNA, set 1":0.146}
{"gene symbol":"OPN1MW (GeneID 2652)","BNIP3L mRNA, set 1":0.15}
{"gene symbol":"MYH8 (GeneID 4626)","BNIP3L mRNA, set 1":0.0687}
{"gene symbol":"DDX39B (GeneID 7919)","BNIP3L mRNA, set 1":0.106}
{"gene symbol":"ABHD11 (GeneID 83451)","BNIP3L mRNA, set 1":0.141}
{"gene symbol":"ZSCAN12 (GeneID 9753)","BNIP3L mRNA, set 1":0.0888}
{"gene symbol":"HCP5 (GeneID 10866)","BNIP3L mRNA, set 1":0.103}
{"gene symbol":"SERPINB13 (GeneID 5275)","BNIP3L mRNA, set 1":0.0777}

5 successive records already listed:
{"gene symbol":"KLF12 (GeneID 11278)","BNIP3L mRNA, set 1":0.122}
{"gene symbol":"LINC00115 (GeneID 79854)","BNIP3L mRNA, set 1":0.136}
{"gene symbol":"OLIG3 (GeneID 167826)","BNIP3L mRNA, set 1":0.12}
{"gene symbol":"FCGR2C (GeneID 9103)","BNIP3L mRNA, set 1":0.0747}
{"gene symbol":"KNG1 (GeneID 3827)","BNIP3L mRNA, set 1":0.0963}
